# According to PubChem BioAssay AID588497 (NMMLSC, 2011):
# Among all 360,000 compounds or so, about 780 (0.22%) were called active. Inconclusive means that the source gave no clear call. Such entries were picked first, then a sample of the others. Rule as the data show it: active = inhibition above about 35% (passing the limit was not always enough); inconclusive = no clear call, values can overlap the other calls.
# Test system: Botulinum neurotoxin type F light chain protease (Clostridium botulinum)
# Assay: BoNT/F light chain protease inhibitors, primary screen, biochemical, flow cytometry, MLPCN library (AID 588497); also: plate controls were buffer without enzyme for full effect and enzyme alone for no effect
# Settings: Multiplex microsphere protease cleavage assay, at 10 µM, stronger effect = higher value
row,SMILES,inhibition
1,Cc1ccc(C(=O)N2CCc3ccccc32)cc1C,inconclusive: 29.7%
2,O=C(Cn1nnc(-c2ccc(Cl)cc2)n1)NC(=O)NC1CCCC1,inactive: -7.2%
3,Nc1cccc2c3c(oc12)CCCC3,inconclusive: -59.1%
4,CCN1C(=O)[C@H]2[C@@H](c3ccc(OC)cc3)N[C@]3(CCCN(Cc4ccc(F)cc4)C3=O)[C@H]2C1=O,inactive: -8%
5,Cc1ccc(-n2c(Cc3cccn3C)nnc2SCC(=O)NCc2ccco2)cc1,inactive: -8.4%
6,Nc1cccc2nsnc12,inconclusive: 60.7%
7,Cc1cccc(NC(=O)c2ccc(COc3ccccc3[N+](=O)[O-])o2)n1,inconclusive: -5.3%
8,COc1ccccc1C(=O)N/C(=N/c1nc(C)cc(C)n1)Nc1ccccc1,inconclusive: 137%
9,COc1ccc(NC(=O)CN(c2c(C)cccc2C)S(C)(=O)=O)cc1,inconclusive: 12.8%
10,Cc1csc(NC(=O)C(Cl)c2ccccc2)n1 (stereo not drawn) (tested in a mixture with another compound),inconclusive: 4.1%
11,COc1cccc(N2CCN(C(=O)c3cc(C)oc3C)CC2)c1,inactive: 7.7%
12,O=C(c1ccc([N+](=O)[O-])s1)N1CCN(c2ccc(C(F)(F)F)cn2)CC1,inactive: -5.2%
13,NC(=O)c1c(NC(=O)COC(=O)CSc2nnc(-c3ccc(Cl)cc3)o2)sc2c1CCC2,inactive: 15.8%
14,CNC(=S)N(CCO)Cc1cc2cc3c(cc2[nH]c1=O)OCO3,inactive: -14.9%
15,O=C(CSC1=NNC(c2ccccn2)S1)Nc1ccccc1 (stereo not drawn),inconclusive: 41.9%
16,COc1ccc(NC(=S)N2CCN(c3ccccc3)CC2)c(OC)c1,inconclusive: -6.9%
17,O=C(Cn1c2ccccc2c(=O)c2ccccc21)Nc1cccc(F)c1,inactive: 2%
18,CCN1CCN(CC(=O)N2N=CCC2c2ccccc2)CC1 (stereo not drawn),inconclusive: -61.4%
19,Cc1ccccc1C(=O)NC1CC2CCCC(C1)N2Cc1ccccc1 (stereo not drawn),inconclusive: 9.6%
20,O=C(O)C1CC=CCC1C(=O)Nc1cccnc1 (stereo not drawn),inactive: -6.2%

row,SMILES,inhibition
1,COc1ccc2c(c1)c(C)cc[n+]2Cc1ccccc1,inconclusive: -127%
2,COc1ccc(OC(=O)COc2cccc(C)c2)cc1,inconclusive: 10.6%
3,CCN(C(=O)Cc1c(C(=O)O)n(C)c2ccccc12)c1cccc(C)c1,inconclusive: -24.2%
4,COc1ccc(CC(=O)Nc2nc(C)cs2)cc1OC,inconclusive: -3.6%
5,CCCCN(C)C(=O)CCC(=O)Nc1ccc2nc(N3CCN(C)CC3)cc(C)c2c1,inactive: 1.7%
6,Cc1nn(-c2ncc(C(F)(F)F)cc2Cl)c(=O)n1-c1cccc(Cl)c1,inconclusive: 5.8%
7,CCc1nnc(N/N=C/c2cc(Br)c(O)cc2O)n1N,inconclusive: -33.2%
8,CC(=O)Nc1cccc(OCCCNC(=O)c2ccc(C(C)(C)C)cc2)c1,inconclusive: 26.8%
9,CCOc1nc(-c2ccccc2)ncc1Oc1ccccc1,inconclusive: -6%
10,O=C(NCc1cccnc1)Nc1cccc(NC(=O)NCc2cccnc2)c1,inactive: -13%
11,O=C(c1cccnc1)N1CCC2CC1c1c(Cl)cccc12 (stereo not drawn),inactive: -2.1%
12,Oc1cccc(/C=N/n2c(C3CCCCC3)n[nH]c2=S)c1,inconclusive: -34.8%
13,C[C@H]1NC(=O)[C@@]2(C)[C@@H](c3ccccc3)[C@H]3COc4ccccc4[C@@H]3N2C1=O,inactive: 4.2%
14,COc1cccc(C2=NOC(C(=O)Nc3ccc4c(c3)OCO4)C2)c1OC (stereo not drawn),inconclusive: 5.2%
15,Cc1cc(OCC(=O)NCC(O)c2ccccc2)c2c3c(c(=O)oc2c1)CCCC3 (stereo not drawn),inactive: 1.6%
16,CC(Nc1nc(-c2cccc(Br)c2)cs1)c1nc2cc(Cl)c(N3CCCCC3)cc2n1CCOCCO (stereo not drawn),inactive: -10%
17,C/C(=N\NC(N)=S)C1(C)CCCCC1,inactive: -6%
18,O=C(c1cc2ccccc2oc1=O)N1CCN(c2ccccn2)CC1,inconclusive: 7.5%
19,COc1ccc(CNC(=O)CCC(=O)Nc2nnc(C(C)C)s2)cc1,inconclusive: 20%
20,CCOc1ccccc1N1CCN(C(=O)c2ccc(-c3ccc(OC(C)=O)cc3)cc2)CC1,inconclusive: -15.8%

# Some of the entries so far, with bars between the fields.
row | SMILES | inhibition
5 | CCCCN(C)C(=O)CCC(=O)Nc1ccc2nc(N3CCN(C)CC3)cc(C)c2c1 | inactive: 1.7%
6 | Cc1nn(-c2ncc(C(F)(F)F)cc2Cl)c(=O)n1-c1cccc(Cl)c1 | inconclusive: 5.8%

# Continued.

row,SMILES,inhibition
1,N#C/C(=C\Nc1ccc2c(c1)OCCO2)C(=O)NCc1ccco1,inconclusive: -1.7%
2,Cc1cc(NC(=O)COc2ccc3oc4ccccc4c3c2)no1,inconclusive: -18%
3,COc1cccc(CNC(=O)c2ccc(C)c(S(=O)(=O)N3CCCCC3)c2)c1,inconclusive: -14%
4,COc1cc(C(=O)N2CCN(c3ccccc3)CC2)c2ccccc2n1,inactive: 8.8%
5,O=S(=O)(O)c1cnccc1Nc1cccc(C(F)(F)F)c1,inconclusive: 20%
6,Cc1ccc2nc(C)cc(C(=O)OCC(=O)c3ccc(Cl)c([N+](=O)[O-])c3)c2c1,inconclusive: -13.2%
7,CCOc1ccc(CCNC(=O)COC(=O)CCc2cc(OC)c(OC)c(OC)c2)cc1OCC,inconclusive: -12.6%
8,O=C(Nc1ccc(CN2CCS(=O)(=O)CC2)cc1)c1ccc(C(F)(F)F)cc1,inactive: -16.7%
9,COc1cc(/C=N/NC(=O)C[n+]2ccccc2)cc(OC)c1OC(C)=O,inconclusive: -73.9%
10,COCCNC(=O)CN1N=C(c2ccc(C)cc2)CCC1=O,inconclusive: 25.3%
11,CC(C)[C@@H](N)C(=O)N/N=C/c1ccc2nccnc2c1,inconclusive: -98.1%
12,C=CCNC(=O)CSc1nc2sc3c(c2c(=O)n1CCCOC)CCC3,inconclusive: -4.5%
13,O=C(COc1ccc(Br)cc1)Nc1ccc(NC(=O)c2ccccc2)cc1,inactive: -4.3%
14,Cc1ccc(/C(O)=C2/C(=O)C(=O)N(c3ccccn3)C2c2ccc(F)cc2)cc1 (stereo not drawn),inconclusive: -26%
15,CCCCN(C(=O)C(C)Oc1ccc(Br)cc1)c1c(N)n(Cc2ccccc2)c(=O)[nH]c1=O (stereo not drawn),inactive: -2.5%
16,CC(NC(=O)N1CCOCC1)c1ccccc1 (stereo not drawn),inconclusive: -7.3%
17,CN(C)c1nc(OCc2ccccc2)c2ncc(=O)[nH]c2n1,inactive: -2.4%
18,COc1ccccc1/C=C/C(=O)c1ccccc1,inconclusive: -15.7%
